Laboratory results from paper PMC8184213.
Results are given in words; binding and its absence hold for the method and conditions named. Binding calls can cover weak binding; strength is not graded here.

How the values were obtained:
[1] = biological target: sarco(endo)plasmic reticulum Ca^2+-ATPase SERCA1a (rabbit (Oryctolagus cuniculus)); assay: oriented-sample solid-state NMR (2D [15N-1H] SE-SAMPI4); SERCA and 15N-labelled PLN or pPLN co-reconstituted in aligned DMPC/POPC/PE-DTPA/DHPC bicelles (q = 4), lipid-to-complex 2000:1, Yb^3+ doped; 20 mM HEPES, 100 mM KCl, 5 mM MgCl2, 2 mM DTT, 2.5% glycerol, pH 7.0, 4 mM EGTA (E2 state, Ca^2+-free); 25°C; both purified
[2] = biological target: sarco(endo)plasmic reticulum Ca^2+-ATPase SERCA1a (rabbit (Oryctolagus cuniculus)); assay: oriented-sample solid-state NMR (2D [15N-1H] SE-SAMPI4); SERCA and 15N-labelled PLN or pPLN co-reconstituted in aligned DMPC/POPC/PE-DTPA/DHPC bicelles (q = 4), lipid-to-complex 2000:1, Yb^3+ doped; 20 mM HEPES, 100 mM KCl, 5 mM MgCl2, 2 mM DTT, 2.5% glycerol, pH 7.0, 5 mM CaCl2 (E1 state); 25°C; both purified

binding [1] | binding [2] | Binder
binds | binds | PLN^AFA, cysteine-null monomeric mutant of phospholamban (Cys36Ala, Cys41Phe, Cys46Ala) (protein, UniProt P61015 1-52) MEKVQYLTRSAIRRASTIEMPQQARQNLQNLFINFALILIFLLLIAIIVMLL
binds | binds | pSer16-PLN, PLN^AFA phosphorylated at Ser16 by protein kinase A (protein, UniProt P61015 1-52, phosphoserine at 16) MEKVQYLTRSAIRRASTIEMPQQARQNLQNLFINFALILIFLLLIAIIVMLL
